Assay results from article PMC5599542.

The chains behind the UniProt entries cited, without tags or fusion partners.
UniProt P62993: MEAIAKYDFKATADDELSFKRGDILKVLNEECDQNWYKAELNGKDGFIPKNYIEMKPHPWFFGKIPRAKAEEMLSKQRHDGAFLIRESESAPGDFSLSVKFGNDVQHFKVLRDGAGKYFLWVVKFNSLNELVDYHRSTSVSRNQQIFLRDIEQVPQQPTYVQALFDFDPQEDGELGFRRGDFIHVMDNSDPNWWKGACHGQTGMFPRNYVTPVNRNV
UniProt Q12774: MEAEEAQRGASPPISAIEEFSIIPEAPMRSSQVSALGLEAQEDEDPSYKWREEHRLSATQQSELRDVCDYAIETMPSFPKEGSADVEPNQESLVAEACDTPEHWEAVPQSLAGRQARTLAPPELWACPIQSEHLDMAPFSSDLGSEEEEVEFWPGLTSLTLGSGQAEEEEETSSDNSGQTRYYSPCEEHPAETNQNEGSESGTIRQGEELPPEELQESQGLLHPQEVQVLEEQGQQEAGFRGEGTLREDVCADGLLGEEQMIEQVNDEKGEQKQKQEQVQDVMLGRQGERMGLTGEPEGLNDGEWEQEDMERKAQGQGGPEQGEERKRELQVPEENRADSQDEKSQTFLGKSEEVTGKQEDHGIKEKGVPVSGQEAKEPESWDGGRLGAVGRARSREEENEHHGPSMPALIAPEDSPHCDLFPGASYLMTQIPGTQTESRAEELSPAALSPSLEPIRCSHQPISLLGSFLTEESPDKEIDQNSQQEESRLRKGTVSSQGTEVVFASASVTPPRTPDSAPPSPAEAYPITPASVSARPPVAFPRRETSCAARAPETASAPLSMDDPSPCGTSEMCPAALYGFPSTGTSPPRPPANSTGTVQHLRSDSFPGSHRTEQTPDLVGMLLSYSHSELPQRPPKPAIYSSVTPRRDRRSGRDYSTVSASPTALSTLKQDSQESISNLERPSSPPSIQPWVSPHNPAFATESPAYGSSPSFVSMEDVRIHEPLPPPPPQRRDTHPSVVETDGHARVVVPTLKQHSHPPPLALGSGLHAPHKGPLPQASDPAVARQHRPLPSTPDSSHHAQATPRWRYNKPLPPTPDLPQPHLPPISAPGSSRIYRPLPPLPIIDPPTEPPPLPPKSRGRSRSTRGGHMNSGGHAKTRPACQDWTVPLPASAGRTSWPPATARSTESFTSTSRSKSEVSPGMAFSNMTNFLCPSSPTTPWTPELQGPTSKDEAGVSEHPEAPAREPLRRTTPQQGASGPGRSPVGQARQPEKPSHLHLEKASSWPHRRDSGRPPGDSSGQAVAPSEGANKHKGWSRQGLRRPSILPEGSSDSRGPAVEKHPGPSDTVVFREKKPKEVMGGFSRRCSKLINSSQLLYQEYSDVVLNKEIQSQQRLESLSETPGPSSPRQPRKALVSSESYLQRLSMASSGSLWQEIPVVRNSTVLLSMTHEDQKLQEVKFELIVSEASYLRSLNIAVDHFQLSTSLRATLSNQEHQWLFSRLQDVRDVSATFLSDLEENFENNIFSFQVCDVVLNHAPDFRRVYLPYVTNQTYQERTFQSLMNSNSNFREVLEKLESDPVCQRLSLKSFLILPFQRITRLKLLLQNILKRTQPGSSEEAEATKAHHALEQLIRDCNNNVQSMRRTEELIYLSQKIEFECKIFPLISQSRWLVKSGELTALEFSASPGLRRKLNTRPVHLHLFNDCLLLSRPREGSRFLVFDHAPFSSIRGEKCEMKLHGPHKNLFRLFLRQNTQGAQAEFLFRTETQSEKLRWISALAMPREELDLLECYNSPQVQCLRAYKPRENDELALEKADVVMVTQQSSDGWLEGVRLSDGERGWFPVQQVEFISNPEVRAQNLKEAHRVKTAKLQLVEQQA
UniProt A5YM69: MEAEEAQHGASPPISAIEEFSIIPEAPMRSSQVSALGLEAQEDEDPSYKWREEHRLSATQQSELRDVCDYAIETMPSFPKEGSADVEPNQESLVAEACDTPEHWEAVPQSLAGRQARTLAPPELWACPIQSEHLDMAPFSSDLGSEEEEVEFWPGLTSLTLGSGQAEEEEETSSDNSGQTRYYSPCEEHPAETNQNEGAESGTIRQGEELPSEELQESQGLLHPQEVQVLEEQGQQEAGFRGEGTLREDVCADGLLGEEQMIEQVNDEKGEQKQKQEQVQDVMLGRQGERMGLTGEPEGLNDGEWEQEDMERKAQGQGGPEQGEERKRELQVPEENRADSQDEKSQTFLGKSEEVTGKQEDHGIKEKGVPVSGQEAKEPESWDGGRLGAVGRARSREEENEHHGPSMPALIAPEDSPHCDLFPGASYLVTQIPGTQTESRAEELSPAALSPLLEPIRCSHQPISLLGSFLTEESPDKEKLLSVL

Target: 3xFLAG-GRB2 (Growth factor Receptor-Bound protein 2), stably expressed in HCC1954 cells (human) (UniProt P62993)
Assay: affinity purification with mass spectrometry; 3xFLAG-GRB2 purified on M2 anti-FLAG resin (1h30, 4 °C) from lysates of stable HCC1954 cells treated or not with pervanadate (PV); biological triplicates; SAINT score above 0.9 against 3xFLAG-GFP controls

| binding | Molecule |
| --- | --- |
| binds | ARHGEF5, endogenous in HCC1954 cells (from UniProt Q12774 1-1597) |
| binds | ARHGEF35 (ARHGEF5-like), endogenous in HCC1954 cells (from UniProt A5YM69 1-484) |
| binds | STAP2 adaptor protein, endogenous in HCC1954 cells (protein, UniProt Q9UGK3 1-403) MASALRPPRVPKPKGVLPSHYYESFLEKKGPCDRDYKKFWAGLQGLTIYFYNSNRDFQHVEKLNLGAFEKLTDEIPWGSSRDPGTHFSLILRDQEIKFKVETLECREMWKGFILTVVELRVPTDLTLLPGHLYMMSEVLAKEEARRALETPSCFLKVSRLEAQLLLERYPECGNLLLRPSGDGADGVSVTTRQMHNGTHVVRHYKVKREGPKYVIDVEQPFSCTSLDAVVNYFVSHTKKALVPFLLDEDYEKVLGYVEADKENGENVWVAPSAPGPGPAPCTGGPKPLSPASSQDKLPPLPPLPNQEENYVTPIGDGPAVDYENQDVASSSWPVILKPKKLPKPPAKLPKPPVGPKPEPKVFNGGLGRKLPVSSAQPLFPTAGLADMTAELQKKLEKRRALEH |

Results are given in words; binding and its absence hold for the method and conditions named. In cells and extracts the contact can be indirect. These calls come from enrichment with a bait or labelling near it, and not all partners need be listed.
